Measurements reported in patent US20220289806A1 (CYTIMM THERAPEUTICS, published 2022).
Results are given in words; binding and its absence hold for the method and conditions named. Some results given as binding are weak or reduced against the parent protein; the word gives no strength.

Chains of the proteins cited; added tags and fusions are not shown. Lines headed by an entry give the natural chain unless they say otherwise; changes in a name come on top.
UniProt P60568: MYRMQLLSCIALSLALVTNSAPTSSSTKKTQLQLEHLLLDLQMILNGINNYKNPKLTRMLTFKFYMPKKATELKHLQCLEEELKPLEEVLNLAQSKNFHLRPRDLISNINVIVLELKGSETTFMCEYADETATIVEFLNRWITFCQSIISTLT

How the values were obtained:
IL2Rαβγ on CTLL2 cells [1] = target: T1, IL2Rαβγ on CTLL2 cells (UniProt P01590); assay: flow cytometry on cells
T1 sequence (looked up) 1: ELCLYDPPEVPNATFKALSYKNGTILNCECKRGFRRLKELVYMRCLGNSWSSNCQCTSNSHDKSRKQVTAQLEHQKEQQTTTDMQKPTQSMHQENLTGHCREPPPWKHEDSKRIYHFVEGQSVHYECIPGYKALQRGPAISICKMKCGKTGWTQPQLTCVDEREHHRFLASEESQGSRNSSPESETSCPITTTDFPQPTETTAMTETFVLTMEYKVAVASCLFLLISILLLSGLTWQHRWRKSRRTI
T1 sequence (looked up) 2: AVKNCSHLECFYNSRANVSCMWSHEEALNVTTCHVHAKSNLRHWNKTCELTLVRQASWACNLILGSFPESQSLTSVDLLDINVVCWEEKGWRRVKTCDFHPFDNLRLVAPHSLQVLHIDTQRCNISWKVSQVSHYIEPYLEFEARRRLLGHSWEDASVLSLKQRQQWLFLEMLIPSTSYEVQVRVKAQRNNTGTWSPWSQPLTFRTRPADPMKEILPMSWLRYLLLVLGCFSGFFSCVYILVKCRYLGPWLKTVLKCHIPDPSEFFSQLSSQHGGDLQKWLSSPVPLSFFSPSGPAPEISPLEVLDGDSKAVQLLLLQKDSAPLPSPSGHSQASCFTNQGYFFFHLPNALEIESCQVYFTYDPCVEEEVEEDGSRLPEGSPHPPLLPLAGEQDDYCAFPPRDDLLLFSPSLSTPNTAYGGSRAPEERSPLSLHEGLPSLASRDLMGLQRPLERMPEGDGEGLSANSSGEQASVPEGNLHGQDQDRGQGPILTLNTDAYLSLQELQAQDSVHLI
T1 sequence (looked up) 3: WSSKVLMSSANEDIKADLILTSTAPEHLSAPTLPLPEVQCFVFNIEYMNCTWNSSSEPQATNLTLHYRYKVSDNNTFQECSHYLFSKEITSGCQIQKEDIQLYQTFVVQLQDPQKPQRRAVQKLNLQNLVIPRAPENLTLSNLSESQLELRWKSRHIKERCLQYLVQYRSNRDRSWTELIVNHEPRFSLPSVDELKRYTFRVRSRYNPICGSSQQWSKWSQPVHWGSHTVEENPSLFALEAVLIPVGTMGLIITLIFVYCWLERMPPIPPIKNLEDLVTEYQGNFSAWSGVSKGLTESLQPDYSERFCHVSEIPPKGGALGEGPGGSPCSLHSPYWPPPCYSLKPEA

IL2Rαβγ on CTLL2 cells [2] = target: T1, IL2Rαβγ on CTLL2 cells; assay: flow cytometry: His-tagged IL-2 variant on CTLL2 cells at 4 °C, detected with anti-His-APC; panel title '191106 ctll2 3 wash 0 hours'
IL2Rαβγ on CTLL2 cells [3] = target: T1, IL2Rαβγ on CTLL2 cells; assay: flow cytometry on CTLL2 cells, His-tagged IL-2 detected with anti-His-APC

In the case of “Y31C mutein (from UniProt P60568 21-153) (ligand)”, the binding (IL2Rαβγ on CTLL2 cells [1]) was “binds”, the binding (IL2Rαβγ on CTLL2 cells [2]) was “binds” and the binding (IL2Rαβγ on CTLL2 cells [3]) was “binds”.

For “Y31C-PEG20 (from UniProt P60568 21-153) (ligand)”, the binding (IL2Rαβγ on CTLL2 cells [3]) was “binds”.

For “recombinant human IL-2 with mutation from Cysteine to Serine at position 125 (rhIL-2) (from UniProt P60568 21-153) (ligand)”, the binding (IL2Rαβγ on CTLL2 cells [2]) was “binds”.
